Experimental data reported in the supplement of paper PMC6078165.
The reference is the same well before dosing, and untreated signal decays as well.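 Labels refer to human fibroblasts, largely primary: uterine (C12385, HUF), lung (H6013), bone (Hs27A), adrenal (HADF), skin (WS1), plus mammary HMF and breast cancer-associated Hs343T. Cancer lines are basal-like or mesenchymal-like triple-negative breast cancer. The paper counts as hits responses shifting over 3x the replicate standard deviation. The tissue of the other fibroblasts is not given here.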

System: HCC1143
Assay: relative JC-1 red fluorescence (viability) vs pre-drug, coculture with fibroblast (fraction); higher = more viable cancer cells
Conditions: 10 µM
Protocol: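 JC-1 labelled TNBC cells cocultured 1:1 (1,500 cells each) with CellTrace Violet stained primary or stromal fibroblasts in 384-well plates in FluoroBrite medium, treated with one of 42 anticancer drugs at 0.1, 1, 10 or 100 uM. JC-1 red fluorescence (mitochondrial integrity in cancer cells only) was read by plate reader every 8 h for 72 h. Values are normalised to each well's pre-drug value. The stock of one drug was tenfold lower, so its dose labels may be too high.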

CC(=O)c1c(C)c2cnc(Nc3ccc(N4CCNCC4)cn3)nc2n(C2CCCC2)c1=O [Palbociclib]
relative JC-1 red fluorescence
Conditions | 8 h | 16 h | 24 h | 32 h | 40 h | 48 h | 56 h | 64 h | 72 h
coculture fibroblast: C12385 | 0.8599 | 0.8135 | 0.7884 | 0.757 | 0.709 | 0.6705 | 0.64055 | 0.6038 | 0.582
coculture fibroblast: H6013 | 0.875 | 0.866 | 0.892 | 0.809 | 0.905 | 0.894 | 0.891 | 0.894 | 0.842
coculture fibroblast: H6019 | 0.89 | 0.851 | 0.846 | 0.799 | 0.778 | 0.757 | 0.736 | 0.709 | 0.681
coculture fibroblast: H6076 | 0.863 | 0.89 | 0.879 | 0.94 | 0.908 | 0.964 | 0.941 | 0.907 | 0.914
coculture fibroblast: H6231 | 0.812 | 0.883 | 0.836 | 0.639 | 0.77 | 0.731 | 0.706 | 0.666 | 0.638
coculture fibroblast: HADF | 0.731 | 0.696 | 0.685 | 0.729 | 0.601 | 0.574 | 0.556 | 0.537 | 0.658
coculture fibroblast: HCFa | 0.766 | 0.7 | 0.684 | 0.72 | 0.62 | 0.58 | 0.572 | 0.547 | 0.616
coculture fibroblast: HCPF | 0.8069 | 0.803 | 0.903 | 0.6677 | 0.839 | 0.787 | 0.761 | 0.72 | 0.691
coculture fibroblast: HHSteC | 0.831 | 0.791 | 0.781 | 0.772 | 0.698 | 0.667 | 0.654 | 0.636 | 0.651
coculture fibroblast: HMF | 0.837 | 0.805 | 0.924 | 0.747 | 0.865 | 0.833 | 0.804 | 0.772 | 0.74
coculture fibroblast: HPFa | 0.949 | 0.92 | 0.921 | 0.852 | 0.828 | 0.811 | 0.777 | 0.739 | 0.725
coculture fibroblast: HUF | 0.864 | 0.812 | 0.824 | 0.732 | 0.644 | 0.674 | 0.606 | 0.651 | 0.597
coculture fibroblast: Hs5 | 0.8466 | 0.973 | 0.956 | 0.893 | 0.879 | 0.858 | 0.838 | 0.816 | 0.813
coculture fibroblast: Hs27A | 0.747 | 0.72 | 0.707 | 0.797 | 0.638 | 0.603 | 0.587 | 0.567 | 0.724
coculture fibroblast: Hs343T | 0.863 | 0.8217 | 0.953 | 0.883 | 0.906 | 0.847 | 0.782 | 0.808 | 0.841
coculture fibroblast: WS1 | 0.851 | 0.821 | 0.799 | 0.775 | 0.756 | 0.731 | 0.701 | 0.678 | 0.659
